US20250002593A1
These are yes or no findings as the source states them, for the method shown. Values belong to the binder of their own block, whether it stands above or below them.

Amino acid sequences for entries named in this document (tags omitted). Residues count along the entry.
UniProt Q9ERS7, residues 22-574: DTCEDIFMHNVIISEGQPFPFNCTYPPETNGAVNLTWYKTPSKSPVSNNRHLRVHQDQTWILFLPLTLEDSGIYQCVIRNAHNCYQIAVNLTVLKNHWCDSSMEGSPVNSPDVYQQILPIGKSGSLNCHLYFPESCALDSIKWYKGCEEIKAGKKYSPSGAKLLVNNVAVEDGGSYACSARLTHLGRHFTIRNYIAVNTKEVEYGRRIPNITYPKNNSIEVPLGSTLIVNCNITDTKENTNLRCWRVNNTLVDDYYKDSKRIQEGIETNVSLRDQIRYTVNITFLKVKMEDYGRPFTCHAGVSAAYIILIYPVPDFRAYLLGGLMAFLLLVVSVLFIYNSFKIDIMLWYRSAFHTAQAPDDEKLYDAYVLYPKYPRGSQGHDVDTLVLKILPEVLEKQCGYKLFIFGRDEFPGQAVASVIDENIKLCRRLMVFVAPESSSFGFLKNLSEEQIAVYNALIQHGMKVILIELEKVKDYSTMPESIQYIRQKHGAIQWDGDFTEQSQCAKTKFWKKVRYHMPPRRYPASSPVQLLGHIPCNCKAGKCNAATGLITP

Biological target: membrane mouse IL-36R (mouse) (UniProt Q9ERS7)
Assay: binding to mouse IL-36R; the legend and Example 8 say membrane mouse IL-36R on transfected HEK293 cells by FACS, but the y axis on the sheet is OD450 nm

- binding: no binding (tested: 10 µg/mL)
B1: BI655130 (antibody, V domains shown)
VH: QVQLVQSGAEVKKPGASVKVSCKASGYSFTSSWIHWVKQAPGQGLEWMGEINPGNVRTNYNENFRNKVTMTVDTSISTAYMELSRLRSDDTAVYYCTVVFYGEPYFPYWGQGTLVTVSS
VL: QIVLTQSPGTLSLSPGERATMTCTASSSVSSSYFHWYQQKPGQAPRLWIYRTSRLASGVPDRFSGSGSGTDFTLTISRLEPEDAATYYCHQFHRSPLTFGAGTKLEIK

- binding: no binding (tested: 10 µg/mL)
B2: REGN14 (antibody, V domains shown)
VH: EVQLVESGGDLVQPGRSLRLSCAASGFTFDDYAMHWVRQAPGKGLEWVSVISWNSDVIAYSDSVKGRFTISRDNAKNSLYLQMNSLRTEDTALYYCTKGHKWSFFDYWGQGTLVTVSS
VL: EIVLTQSPATLSLSPGERATLSCRASQSISSYLAWYQQKPGQAPRLLIFNVANRATDIPARFSGSGSGTDFTLTISSLEPEDFAVYYCQQRSNWPLTFGGGTKVEIK

- binding: no binding (tested: 10 µg/mL)
B3: ANB019 (antibody, V domains shown)
VH: QVQLVQSGAEVKKPGASVKVSCKASGYTFTNYWMNWVRQAPRQGLEWMGMFHPTGDVTRLNQKFKDRVTMTRDTSTSTVYMELSSLRSEDTAVYYCARTTSMIIGGFAYWGQGTLVTVSS
VL: DIVMTQTPLSLSVTPGQPASISCRSSKSLLHRNAITYFYWYLHKPGQPPQLLIYQMSNLASGVPDRFSGSGSGTDFTLKISRVEAEDVGVYYCAQNLELPLTFGGGTKVEIK
